Data reported in the supplement of paper PMC9135407.
Where “and” joins values, the source holds several entries; their conditions need not be identical. Equal entries are not always repeated. Structures can show the parent of a compound that is named as a salt. ± gives the standard deviation of the averaged measurements. The list shows a part of the results. Plates or batches differ in their baseline, so values are only roughly comparable.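 Assay uses culture-activated primary human stellate myofibroblasts; lipid droplet recovery indicates inactivation. Measured: proportion of Hoechst-counted cells over a plate-specific Bodipy cutoff, duplicate wells, DMSO and nortriptyline as per-plate negative and positive controls. A hit scores, control-normalized, above the plate's top-tenth-percentile nortriptyline wells or ranks among its three best wells. Final well concentrations not reported.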

Tested on: primary human hepatic stellate cells (donor 1)
Experiment: percent Bodipy-positive cells; higher = more lipid droplet accumulation
Details: 48 h
[1] = library stock concentration: 7.2 mM
[2] = library stock concentration: 10 mM
[3] = library stock concentration: 3.33 mM
[4] = library stock concentration: 1 mM

SMILES: COc1ccc(C(CN(C)C)C2(O)CCCCC2)cc1 (stereo not drawn) [Venlafaxine HCl]
- percent Bodipy-positive cells [1]: 14.2 ± 6.5%

SMILES: COc1ccc(C(CN(C)C)C2(O)CCCCC2)cc1 (stereo not drawn)
- percent Bodipy-positive cells [2]: 27.5 ± 14%

SMILES: COc1ccc(C(CN(C)C)C2(O)CCCCC2)cc1 (stereo not drawn) [Venlafaxine hydrochloride]
- percent Bodipy-positive cells [2]: 57.2 ± 7.4%

SMILES: COc1ccc(C(CN(C)C)C2(O)CCCCC2)cc1 (stereo not drawn) [Venlafaxine]
- percent Bodipy-positive cells [3]: 22.8 ± 8%
- percent Bodipy-positive cells [1]: 28.5 ± 3.3%

SMILES: Cc1o[nH]c(=O)c1CC(N)C(=O)O (stereo not drawn) [(?)-AMPA hydrobromide]
- percent Bodipy-positive cells [2]: 51.3 ± 8.5%

SMILES: CS(=O)(=O)O.Oc1ccc2c3c1O[C@H]1c4oc5ccccc5c4C[C@@]4(O)C(C2)N(CC2CC2)CC[C@]314 [Naltriben mesylate]
- percent Bodipy-positive cells [2]: 74.9 ± 1.4%

SMILES: CNC(=O)Oc1ccc2c(c1)[C@]1(C)CCN(C)[C@@H]1N2C [Physostigmine]
- percent Bodipy-positive cells [2]: 12% and 23%

SMILES: CNC(=O)Oc1ccc2c(c1)[C@]1(C)CCN(C)[C@@H]1N2C [Physostigmine sulfate]
- percent Bodipy-positive cells (library stock concentration: 7.3 mM): 11.2 ± 0.9%

SMILES: CNC(=O)Oc1ccc2c(c1)[C@]1(C)CCN(C)[C@@H]1N2C [(-)-Physostigmine]
- percent Bodipy-positive cells [2]: 47.2 ± 13%

SMILES: CNC(=O)Oc1ccc2c(c1)[C@]1(C)CCN(C)[C@@H]1N2C [Physostigmine salicylate]
- percent Bodipy-positive cells (library stock concentration: 4.8 mM): 3.87 ± 0.68%
- percent Bodipy-positive cells [2]: 20.9 ± 7.7%

SMILES: CNC(=O)Oc1ccc2c(c1)[C@]1(C)CCN(C)[C@@H]1N2C [Eserine sulfate, physostigmine sulfate]
- percent Bodipy-positive cells: 26.3 ± 5.2%

SMILES: CCN(CC)CCOC(=O)C(O)(c1ccccc1)c1ccccc1
- percent Bodipy-positive cells [2]: 9.45 ± 6.3%

SMILES: Cc1onc(O)c1C[C@H](N)C(=O)O
- percent Bodipy-positive cells [2]: 7.1 ± 3.7%

SMILES: CCCCC/C=C\C/C=C\C/C=C\C/C=C\CCCC(=O)NCCOP(=O)(O)O [Arachidonoyl Ethanolamide Phosphate]
- percent Bodipy-positive cells [4]: 13 ± 0.45%

SMILES: CN1[C@H]2C[C@H](OC(=O)[C@H](CO)c3ccccc3)C[C@@H]1[C@@H](O)C2 [Anisodamine]
- percent Bodipy-positive cells [2]: 25.1 ± 1.1%

SMILES: CN1[C@H]2C[C@H](OC(=O)[C@H](CO)c3ccccc3)C[C@@H]1[C@@H](O)C2
- percent Bodipy-positive cells [2]: 39.9 ± 4.6%

SMILES: O=C(O)CCC(CP(=O)(O)O)C(=O)O (stereo not drawn) [PMPA (NAALADase inhibitor)]
- percent Bodipy-positive cells [2]: 7.05 ± 1.2%

SMILES: CN(C)C(=O)Oc1cccc([N+](C)(C)C)c1 [Neostigmine bromide]
- percent Bodipy-positive cells: 25.9 ± 1.2%
- percent Bodipy-positive cells (library stock concentration: 6.6 mM): 2.4 ± 0.66%
- percent Bodipy-positive cells [2]: 10.1% and 31.3%

SMILES: CC(C)(C)OC(=O)c1ncn2c1[C@@H]1CCCN1C(=O)c1c(Br)cccc1-2 [Bretazenil]
- percent Bodipy-positive cells [2]: 3.33 ± 0.55%

SMILES: C=C(C)[C@@H]1CCC(C)=C[C@H]1c1c(OC)cc(CCCCC)cc1OC [Cannabidiol dimethyl ether]
- percent Bodipy-positive cells [4]: 13.5 ± 6%

SMILES: CCOC(=O)c1ncc2[nH]c3ccc(OCc4ccccc4)cc3c2c1COC
- percent Bodipy-positive cells [2]: 22.6 ± 9.1%

SMILES: NP(N)(=O)NC(=O)c1ccc(F)cc1
- percent Bodipy-positive cells [2]: 36.8 ± 4.4%

SMILES: NP(N)(=O)NC(=O)c1ccc(F)cc1 [Flurofamide]
- percent Bodipy-positive cells [2]: 8.19 ± 0.99%

SMILES: CC(C)(N)Cc1ccccc1 [Phentermine]
- percent Bodipy-positive cells (library stock concentration: 13.4 mM): 23.6 ± 0.33%

SMILES: COc1ccc(C(=O)c2c(C)n(CCN3CCOCC3)c3ccccc23)cc1 [Pravadoline]
- percent Bodipy-positive cells (library stock concentration: 5.3 mM): 11.9 ± 3.7%

SMILES: CCCCC(C#N)(Cn1cncn1)c1ccc(Cl)cc1 (stereo not drawn) [Myclobutanil]
- percent Bodipy-positive cells (library stock concentration: 6.9 mM): 9.55 ± 1.8%

SMILES: Clc1cccc(SC2CCNCC2)n1 [Anpirtoline hydrochloride]
- percent Bodipy-positive cells [2]: 20.9 ± 7.2%

SMILES: O=c1c2ccccc2[se]n1-c1ccccc1 [Ebselen]
- percent Bodipy-positive cells: 85.2 ± 15%

SMILES: CCc1c(C(=O)C(N)=O)c2c(OCC(=O)O)cccc2n1Cc1ccccc1
- percent Bodipy-positive cells [3]: 6.5 ± 2%
- percent Bodipy-positive cells [2]: 22.1 ± 6.9%

SMILES: Cc1[nH]nc2ccc(-c3cncc(OC[C@@H](N)Cc4c[nH]c5ccccc45)c3)cc12
- percent Bodipy-positive cells (library stock concentration: 80 uM): 41.6 ± 3.8%
- percent Bodipy-positive cells (library stock concentration: 2 mM): 99.49 ± 0.72%
- percent Bodipy-positive cells [2]: 100%

SMILES: CCCCCC(/C=C/C=O)OO (stereo not drawn) [4-hydroperoxy 2-Nonenal]
- percent Bodipy-positive cells [4]: 19.7 ± 7.2%

SMILES: Cc1sc2c(c1C)C(c1ccc(Cl)cc1)=N[C@@H](CC(=O)Nc1ccc(O)cc1)c1nnc(C)n1-2
- percent Bodipy-positive cells [3]: 55 ± 16%
- percent Bodipy-positive cells [2]: 54 ± 12%

SMILES: CCNCC(O)c1cccc(O)c1 (stereo not drawn) [Etilefrine hydrochloride]
- percent Bodipy-positive cells: 9.23 ± 1.9%

SMILES: NC(=NN=Cc1ccc(-c2cccc([N+](=O)[O-])c2)o1)N[N+](=O)[O-] [ERK Inhibitor III]
- percent Bodipy-positive cells [3]: 11.5 ± 1.2%

SMILES: CCCCCCCCCCCCCCCCSP(=O)([O-])OCC[N+](C)(C)C [thio-Miltefosine]
- percent Bodipy-positive cells [4]: 14.1 ± 7.8%

SMILES: O=c1c2ccccc2[se]n1-c1ccccc1
- percent Bodipy-positive cells [2]: 85.3 ± 1.6%

SMILES: CN1C2CCC1CC(OC(c1ccccc1)c1ccc(Cl)cc1)C2.Cl (stereo not drawn)
- percent Bodipy-positive cells [2]: 98.89 ± 0.66%

SMILES: CN1CCc2cc3c(cc2C1O)OCO3 (stereo not drawn) [Hydrastinine hydrochloride]
- percent Bodipy-positive cells: 26.5 ± 7.5%

SMILES: CCCCCCC(=O)O[C@H]1CC[C@H]2[C@@H]3CC(=O)C4=CC(=O)CC[C@]4(C)[C@H]3CC[C@]12C [6-keto Testosterone Enanthate]
- percent Bodipy-positive cells [4]: 19.2 ± 7.4%

SMILES: COc1ccc2c(c1OC)C(=O)OC2C1c2cc3c(cc2CCN1C)OCO3 (single isomer, unassigned; (+)) [(+)-Hydrastine]
- percent Bodipy-positive cells [2]: 42.2 ± 3.4%

SMILES: CCN(CC)CCO[C@H]1CC[C@@]2(C)C(=CC[C@@H]3[C@@H]2CC[C@]2(C)C(=O)CC[C@@H]32)C1.Cl
- percent Bodipy-positive cells [2]: 80.2 ± 2.6%

SMILES: CCOP(=S)(OCC)Oc1ccc2c(C)c(Cl)c(=O)oc2c1
- percent Bodipy-positive cells [2]: 26.8 ± 3.8%

SMILES: O=C1C=CC(=O)C=C1 [p-Benzoquinone]
- percent Bodipy-positive cells [2]: 30.2 ± 8.1%

SMILES: Cn1c2c(c3ccccc31)CCNCC2
- percent Bodipy-positive cells [2]: 29.1 ± 3.3%

SMILES: CCCCC/C=C\C/C=C\C/C=C\CCCCCCC(=O)NCCO [Dihomo-.gamma.-Linolenoyl Ethanolamide]
- percent Bodipy-positive cells [4]: 7.62 ± 0.9%

SMILES: c1ccc2c(c1)Sc1ccccc1N2CC1CN2CCC1CC2 (stereo not drawn)
- percent Bodipy-positive cells [2]: 96.494 ± 0.033%

SMILES: FC(F)(F)c1cccc(N2CCNCC2)c1
- percent Bodipy-positive cells [2]: 56.9 ± 7.9%

SMILES: C[C@H]1CNCCc2ccc(Cl)cc21 [Lorcaserin HCl]
- percent Bodipy-positive cells [3]: 25 ± 8.6%
- percent Bodipy-positive cells [2]: 64.4 ± 0.28%

SMILES: CNCCCCCCN(C)N(O)N=O
- percent Bodipy-positive cells [4]: 7.39 ± 0.95%

SMILES: CC(=O)[C@H]1CC[C@H]2[C@@H]3CC[C@H]4C[C@H](O)CC[C@]4(C)[C@H]3C(=O)C[C@]12C [Alfaxalone]
- percent Bodipy-positive cells: 10.8 ± 1.9%

SMILES: CC(=O)[C@H]1CC[C@H]2[C@@H]3CC[C@H]4C[C@H](O)CC[C@]4(C)[C@H]3C(=O)C[C@]12C [5alpha-Pregnan-3alpha-ol-11,20-dione]
- percent Bodipy-positive cells [2]: 36.8 ± 10%

SMILES: CC(=O)c1c(O)c(C)c(O)c(Cc2c(O)c3c(c(C(=O)/C=C/c4ccccc4)c2O)OC(C)(C)C=C3)c1O [Rottlerin]
- percent Bodipy-positive cells (library stock concentration: 9.7 mM): 22.6 ± 6.4%
- percent Bodipy-positive cells [2]: 22.4 ± 0.93%

SMILES: COc1ccccc1N1CCNCC1 [1-(2-Methoxyphenyl)piperazine hydrochloride]
- percent Bodipy-positive cells [2]: 18.8 ± 4.1%
